3 molecules from patent US7230089 can be followed below.

Sequences of proteins named here, by UniProt entry; tags and fusion partners are left off. A change or cut given only in a name is not applied to a line headed by its entry.
UniProt P04386: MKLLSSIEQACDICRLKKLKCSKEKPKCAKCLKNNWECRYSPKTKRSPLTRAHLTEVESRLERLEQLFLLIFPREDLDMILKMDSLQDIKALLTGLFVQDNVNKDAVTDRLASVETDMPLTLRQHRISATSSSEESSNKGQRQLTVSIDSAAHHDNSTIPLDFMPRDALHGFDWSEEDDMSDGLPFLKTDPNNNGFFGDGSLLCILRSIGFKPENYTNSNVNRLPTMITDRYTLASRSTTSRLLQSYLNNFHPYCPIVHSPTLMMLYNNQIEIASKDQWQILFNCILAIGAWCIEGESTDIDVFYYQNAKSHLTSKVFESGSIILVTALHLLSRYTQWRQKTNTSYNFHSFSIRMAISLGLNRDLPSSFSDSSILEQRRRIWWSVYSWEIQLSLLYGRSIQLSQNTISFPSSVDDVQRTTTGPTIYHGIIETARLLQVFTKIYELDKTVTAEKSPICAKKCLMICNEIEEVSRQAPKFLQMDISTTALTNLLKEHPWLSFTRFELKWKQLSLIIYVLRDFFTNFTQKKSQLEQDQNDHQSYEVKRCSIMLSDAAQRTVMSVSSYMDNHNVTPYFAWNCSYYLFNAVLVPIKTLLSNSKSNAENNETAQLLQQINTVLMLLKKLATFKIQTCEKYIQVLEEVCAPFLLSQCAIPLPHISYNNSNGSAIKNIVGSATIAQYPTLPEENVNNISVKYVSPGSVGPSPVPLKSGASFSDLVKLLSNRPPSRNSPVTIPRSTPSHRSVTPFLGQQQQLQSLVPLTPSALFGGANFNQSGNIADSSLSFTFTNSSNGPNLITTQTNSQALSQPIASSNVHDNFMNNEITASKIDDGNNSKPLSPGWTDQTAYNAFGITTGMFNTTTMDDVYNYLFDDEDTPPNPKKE
UniProt P42751: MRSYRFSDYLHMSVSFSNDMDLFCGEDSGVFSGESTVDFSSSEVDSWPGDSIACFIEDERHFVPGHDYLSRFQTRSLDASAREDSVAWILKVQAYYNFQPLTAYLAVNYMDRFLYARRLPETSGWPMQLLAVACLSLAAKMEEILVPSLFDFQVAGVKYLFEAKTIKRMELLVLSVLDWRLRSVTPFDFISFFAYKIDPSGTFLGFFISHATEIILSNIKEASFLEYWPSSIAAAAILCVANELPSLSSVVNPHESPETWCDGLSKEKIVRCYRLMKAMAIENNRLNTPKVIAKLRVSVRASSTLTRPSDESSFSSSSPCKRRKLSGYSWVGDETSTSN

No constants are given. Whether binding was seen depends on the method and setting. Some results given as binding are weak or reduced against the parent protein; the word gives no strength. Where a sequence is shown, tags or fusion partners need not be part of it.

The target in assay [1] is T1, GAL4-CycD1At fusion protein (Arabidopsis thaliana D-type cyclin D1, amino acids 1 to 334, fused to the GAL4 DNA binding domain; bait plasmid pGBT9CycD1At) (Arabidopsis thaliana) (UniProt P04386+P42751). Kind of assay: yeast two-hybrid screen, cyclin D1 as bait.
Assay [2] addresses T1, GAL4-CycD1At fusion protein (Arabidopsis thaliana D-type cyclin D1, amino acids 1 to 334, fused to the GAL4 DNA binding domain; bait plasmid pGBT9CycD1At) (Arabidopsis thaliana). In words: yeast two-hybrid screen (growth on His- / 3-aminotriazole medium and beta-galactosidase activity), cyclin D1 as GAL4 DNA binding domain bait.

B1: BRO4 (clone from the Arabidopsis thaliana cDNA / GAL4 activation domain fusion library, pACT BRO4) (protein, not shown: large carriers)
chain: MSERKRELAEEASSTSFSPLKKTKLNDSSDSSPDSHDVIVFAVSSSSVASSAALASDECSVTIGGEESDQSSSISSGCFTSESKEIAKNSSSFGVDLEDHQIETETETSTFITSNFRKETSPVSEGLGETTTEMESSSATKRKQPGVRKTPTAAEIEDLFSELESPDDKKKQFIEKYNFDIVNDEPLEGRYKWDRL
As to B1, the binding result in assay [1] and in assay [2] was “binds” throughout.

B2: BRO2 (clone from the Arabidopsis thaliana cDNA / GAL4 activation domain fusion library, pACT BRO2) (protein, not shown: large carriers)
chain: MDLELLQDLSKFNFPTPIKIRSKTSKTKKDEGDDDEDDLRCSTPTSQEHKIPAVVDSPPPPPRKPRPPPSAPSATAALMIRSCKRKLLVSTCEIIMNREEIDRFFSSVYNETSTTAKRRRSYPYCSRR
Regarding B2, the binding result in assay [1] and in assay [2] was “binds” each time.

B3: BRO3 (clone from the Arabidopsis thaliana cDNA / GAL4 activation domain fusion library, pACT BRO3) (protein, not shown: large carriers)
chain: MEEEVDLVESRIILSPCVQATNRGGIVARNSAGASETSVVIVRRRDSPPVEEQCQIEEEDSSVSCCSTSEEKSKRRIEFVDLEENNGDDRETETSWIYDDLNKSEESMNMDSSSVAVEDVESRRRLRKSLHETVKEAELEDFFQVAEKDLRNKLLECSMKYNFDFEKDEPLGGGRYEWVKLNP
B3: the binding result in assay [1] and in assay [2] was “binds” in each case.
